Measured values: the supplement of paper PMC12889115
This is one part of the list. These are raw signals, not scaled to a control.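 First-pass screen: polymyxin B was added at a level that permeabilizes the Salmonella outer membrane while sparing the inner membrane. DMSO wells, with and without polymyxin B, defined maximum growth. Because plates differed from one another, each plate's data were ranked separately and the compounds with the lowest OD600 were carried forward as hits.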

System: Salmonella enterica serovar Typhimurium SL1344
Assay: bacterial growth OD600 after 18 h with compound and polymyxin B; higher = more bacterial growth (less inhibition)
Conditions: 50 µM, Mueller-Hinton broth

Row | Structure (SMILES) | bacterial growth OD600 (polymyxin B 1 µg/mL) | bacterial growth OD600 (polymyxin B 0.75 µg/mL)
1 | Cc1oc(-c2cccc(F)c2)nc1CN(C)C(C)c1cccs1 (stereo unspecified) | 0.629 | –
2 | Cc1cc(C)nc(NCc2cccnc2N2CCN(C)CC2)n1 | – | 0.775
3 | CC(C)c1noc(-c2ccc(NCc3cc(-c4cccnc4)no3)nc2)n1 | – | 0.008
4 | Cc1ncc(CNC(C)c2cnc(N(C)C3CCCCC3)nc2C)cn1 (stereo unspecified) | – | 0.551
5 | CCn1ccnc1CNC(=O)c1ccc(OC2CCN(S(=O)(=O)N(C)C)CC2)cc1 | 0.974 | –
6 | COCC(O)CNC(=O)c1cc(Cl)ccc1OC1CCN(C2CCCC2)CC1 (stereo unspecified) | 0.918 | –
7 | C/C=C(\C)CN1CCOc2ccc(C(C)(O)COc3ccccc3)cc2C1 (stereo unspecified) | – | 0.878
8 | CC(=O)N[C@@H]1c2ccccc2C2(CCN(C(=O)c3nc4ncccn4n3)CC2)[C@H]1OCc1ccccc1 | – | 0.94
9 | COc1cccc(CN2CCN(Cc3ccccc3F)C(CCO)C2)c1 (stereo unspecified) | 0.915 | –
10 | COCC1CCCN(Cc2ccc3c(c2)CN(C(=O)COc2ccccc2Cl)CCO3)C1 (stereo unspecified) | – | 0.966
11 | Cc1ccc2oc(C(=O)NCC3COc4ccccc4O3)c(C)c2c1 (stereo unspecified) | 0.409 | –
12 | O=C(NC1CC(=O)N(Cc2cccc3ccccc23)C1)c1ccco1 (stereo unspecified) | 0.91 | –
13 | COCCCN1C(=O)CC(CC(=O)N2CCC(Oc3ccccc3OC)CC2)(c2ccccc2)C1=O (stereo unspecified) | – | 0.825
14 | CC#CCN1C(=O)NC(CCc2ccccc2)(C2CCN(Cc3ccc(OCC)cc3)CC2)C1=O (stereo unspecified) | – | 0.809
15 | CN(C(=O)c1cccs1)C(Cc1ccccc1)C1CCN(C(=O)CSc2ncccn2)CC1 (stereo unspecified) | – | 0.946
16 | Cc1ccc(CN2CCN(Cc3cc4ccccc4o3)CC2CCO)cc1 (stereo unspecified) | 0.809 | –

Reformatted in markdown: part of the list above.

| Row | Structure (SMILES) | bacterial growth OD600 (polymyxin B 1 µg/mL) | bacterial growth OD600 (polymyxin B 0.75 µg/mL) |
| --- | --- | --- | --- |
| 4 | Cc1ncc(CNC(C)c2cnc(N(C)C3CCCCC3)nc2C)cn1 (stereo unspecified) | – | 0.551 |
| 6 | COCC(O)CNC(=O)c1cc(Cl)ccc1OC1CCN(C2CCCC2)CC1 (stereo unspecified) | 0.918 | – |
| 7 | C/C=C(\C)CN1CCOc2ccc(C(C)(O)COc3ccccc3)cc2C1 (stereo unspecified) | – | 0.878 |
| 11 | Cc1ccc2oc(C(=O)NCC3COc4ccccc4O3)c(C)c2c1 (stereo unspecified) | 0.409 | – |
| 15 | CN(C(=O)c1cccs1)C(Cc1ccccc1)C1CCN(C(=O)CSc2ncccn2)CC1 (stereo unspecified) | – | 0.946 |
| 16 | Cc1ccc(CN2CCN(Cc3cc4ccccc4o3)CC2CCO)cc1 (stereo unspecified) | 0.809 | – |

Additional compounds follow.

Row | Structure (SMILES) | bacterial growth OD600 (polymyxin B 1 µg/mL) | bacterial growth OD600 (polymyxin B 0.75 µg/mL)
17 | COc1ccc(CN2CCCC(CNC(=O)c3ccc(F)cc3)C2)cc1OC (stereo unspecified) | 0.885 | –
18 | CS(=O)(=O)NCc1cccnc1Oc1cccc(C(F)(F)F)c1 | 0.823 | –
19 | Cc1ccccc1SC1CCN(C(=O)c2cn(CCN3CCOCC3)nn2)CC1 | 1.08 | –
20 | CC(C)(O)C#Cc1ccc(C(=O)N2CCC3(CC2)c2ccccc2[C@@H](NC(=O)c2ccccc2)[C@@H]3O)o1 | – | 0.883
21 | COc1cc(C(=O)N2CCCC(C(=O)c3cccc4ccccc34)C2)cc(OC)c1OC (stereo unspecified) | 0.85 | –
22 | COc1cccc(CN2CC(C(=O)N(C)Cc3ccc(C)cc3)CCC2=O)c1 (stereo unspecified) | 0.919 | –
23 | COC(=O)C1CCCCN1Cc1ccc2c(c1)CN(C(=O)CN1CCOC1=O)CCO2 (stereo unspecified) | – | 0.85
24 | CC(C)(C)NC(=O)NC1CCCc2nc(-c3cccnc3)ncc21 (stereo unspecified) | – | 0.812
25 | COc1cc(CNC(=O)CCC2(Cc3ccc(F)c(OC)c3)CCC(=O)N2)cc(OC)c1 (stereo unspecified) | – | 0.915
26 | O[C@@H]1CN(Cc2cccs2)CC[C@H]1N1CCCCCC1 | – | 0.864
27 | COc1cc(CN2CCC(c3nc(-c4ccncc4)ncc3-c3cccc(C)c3)CC2)cc(OC)c1 | – | 0.8
28 | COc1ccc(CC2(CCC(=O)NCC3COc4ccccc4O3)CCC(=O)N2)c(F)c1 (stereo unspecified) | – | 0.798
29 | C=CCCC(=O)N1CCC(n2nccc2NC(=O)c2ccc(OC)cc2)CC1 | 0.903 | –
30 | CCOC(=O)CN(C)C(=O)CC1(c2ccccc2)CC(=O)N(Cc2ccc3c(c2)OCO3)C1=O (stereo unspecified) | – | 0.95
31 | COc1cccc(CN2CCN(Cc3ccc(C#CC(C)(C)O)s3)CC2CCO)c1 (stereo unspecified) | – | 0.793
